In publication doi:10.1101/2023.04.10.536212 one finds binding data, which are given here for 2 substances.

The chains behind the UniProt entries cited, without tags or fusion partners.
UniProt Q01860, whole entry: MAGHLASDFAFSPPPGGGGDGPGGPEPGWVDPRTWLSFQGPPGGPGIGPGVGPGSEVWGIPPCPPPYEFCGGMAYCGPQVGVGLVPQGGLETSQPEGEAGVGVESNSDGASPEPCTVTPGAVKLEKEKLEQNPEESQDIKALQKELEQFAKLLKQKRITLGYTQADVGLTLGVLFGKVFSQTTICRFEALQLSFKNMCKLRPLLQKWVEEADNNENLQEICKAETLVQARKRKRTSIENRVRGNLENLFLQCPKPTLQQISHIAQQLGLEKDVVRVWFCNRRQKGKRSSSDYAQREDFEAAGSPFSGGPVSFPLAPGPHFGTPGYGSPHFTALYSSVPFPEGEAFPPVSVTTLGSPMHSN
UniProt P08670, whole entry: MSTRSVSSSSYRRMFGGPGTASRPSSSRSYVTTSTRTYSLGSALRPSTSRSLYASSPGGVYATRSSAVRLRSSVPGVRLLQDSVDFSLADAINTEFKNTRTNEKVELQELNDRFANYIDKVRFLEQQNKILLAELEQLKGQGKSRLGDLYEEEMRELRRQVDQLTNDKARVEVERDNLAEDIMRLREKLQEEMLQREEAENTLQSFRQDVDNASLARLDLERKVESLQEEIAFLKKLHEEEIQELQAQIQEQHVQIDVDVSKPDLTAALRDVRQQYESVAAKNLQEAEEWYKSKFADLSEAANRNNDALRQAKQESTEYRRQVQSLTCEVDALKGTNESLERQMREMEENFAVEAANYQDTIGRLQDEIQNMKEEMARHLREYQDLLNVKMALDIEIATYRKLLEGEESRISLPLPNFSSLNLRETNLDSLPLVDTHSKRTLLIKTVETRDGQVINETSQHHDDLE
UniProt P12004, whole entry: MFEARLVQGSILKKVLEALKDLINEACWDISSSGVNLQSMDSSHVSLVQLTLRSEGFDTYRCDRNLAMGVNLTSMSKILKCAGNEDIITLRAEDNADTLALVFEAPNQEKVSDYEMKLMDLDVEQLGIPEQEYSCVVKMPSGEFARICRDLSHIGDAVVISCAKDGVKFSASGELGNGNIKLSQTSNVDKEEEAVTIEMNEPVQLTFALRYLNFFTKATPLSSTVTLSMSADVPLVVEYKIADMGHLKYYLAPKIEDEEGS

The assay deals with Octamer-binding transcription factor-4 (Oct4) (UniProt Q01860). Description: co-IP.

These are yes or no findings as the source states them, for the method shown. Binding seen in cells or lysates may run through a third protein. Some results given as binding are weak or reduced against the parent protein; the word gives no strength.

On to Vimentin (from UniProt P08670 1-466), for which the binding entry is recorded as “binds”. Regarding PCNA (from UniProt P12004 1-261), the binding result is on record as “binds”.
